Several values for one entry are separate records, joined by “and”; a condition that tells them apart may be missing. Equal entries are not always repeated.
Columns and labels:
[1] = Avidin and Avidin-Rhodamine binding to talc after PBS and 0.2% EDTA washes, fluorescent microscope (Example 2); conditions: 100 mg talc; 3× PBS, or 3× PBS then 3× 0.2% EDTA
[2] = Binding Avidin to 100 mg sterile talc: saturation and release on washing, Pierce 660 nm total protein assay (Example 3); conditions: for AVIDIN in supernatant after incubation / Avidin binded to talc / Amount of Avidin removed by wash: 100 mg talc
[3] = Avidin saturation of 100 mg talc at higher Avidin concentrations, Pierce total protein assay (Example 4); assay type: binding
[4] = Hot and cold Avidin mix binding to talc with controls, absorbance 450 nm (Example 12)

## Avidin-Rhodamine: Rhodamine Conjugated Avidin from Rockland
[1]
  binding to talc after washes (fluorescent microscope): remained bound to talc despite multiple washes

## Avidin: Avidin from egg white (Sigma, Cat. #: A 9275-100 mg); unlabeled, cold Avidin
[1]
  binding to talc after washes (fluorescent microscope): remained bound to talc despite multiple washes
[2]; 198.4 μg Avidin added to reaction
  Saturation of AVIDIN to the combine surface of 100 mg talc: 2.48 μg/cm^2
[2]; 1650.3 μg Avidin added to reaction
  Saturation of AVIDIN to the combine surface of 100 mg talc: 6.25 μg/cm^2
[2]; 198.4 μg AVIDIN in reaction
  AVIDIN in supernatant after incubation: 13.7 μg/0.5 ml
  Avidin binded to talc: 184.7 µg
[2]; 198.4 μg AVIDIN in reaction (396.8 μg/ml, 0.5 ml)
  AVIDIN in supernatant after incubation: 27.4 µg/mL
[2]; 1650.3 μg AVIDIN in reaction
  AVIDIN in supernatant after incubation: 1185 μg/0.5 ml
  Avidin binded to talc: 465.3 µg
[2]; 1650.3 μg AVIDIN in reaction (3300.6 μg/ml, 0.5 ml)
  AVIDIN in supernatant after incubation: 2370 µg/mL
[2]; 1st wash with EDTA, 198.4 μg Avidin
  Amount of Avidin removed by wash: 15.8 µg/mL
[2]; 1st wash with EDTA, 1650.3 μg Avidin
  Amount of Avidin removed by wash: 13.2 µg/mL
[2]; 1st wash with PBS, 198.4 μg Avidin
  Amount of Avidin removed by wash: 31.4 µg/mL
[2]; 1st wash with PBS, 1650.3 μg Avidin
  Amount of Avidin removed by wash: 307.4 µg/mL
[2]; 2nd wash with EDTA, 198.4 μg Avidin
  Amount of Avidin removed by wash: 19.8 µg/mL
[2]; 2nd wash with EDTA, 1650.3 μg Avidin
  Amount of Avidin removed by wash: 12.3 µg/mL
[2]; 2nd wash with PBS, 198.4 μg Avidin
  Amount of Avidin removed by wash: 27.6 µg/mL
[2]; 2nd wash with PBS, 1650.3 μg Avidin
  Amount of Avidin removed by wash: 67.3 µg/mL
[2]; 3rd wash with EDTA, 198.4 μg Avidin
  Amount of Avidin removed by wash: 13 µg/mL
[2]; 3rd wash with EDTA, 1650.3 μg Avidin
  Amount of Avidin removed by wash: 13.2 µg/mL
[2]; 3rd wash with PBS, 198.4 μg Avidin
  Amount of Avidin removed by wash: 32.7 µg/mL
[2]; 3rd wash with PBS, 1650.3 μg Avidin
  Amount of Avidin removed by wash: 40.3 µg/mL
[3]; Avidin 330 μg/ml added
  Avidin binded with talc: 110.4 µg/mL
  Avidin in supernatant: 219.6 μg, ml
  Avidin μg/cm2 talc surface: 1.5 μg/cm2
[3]; Avidin 3300 μg/ml added
  Avidin binded with talc: 2452.7 µg/mL
  Avidin in supernatant: 847.3 μg, ml
  Avidin μg/cm2 talc surface: 33.0 μg/cm2 and 33 μg/cm2
[3]; Avidin 6600 μg/ml added
  Avidin binded with talc: 4631.5 µg/mL
  Avidin in supernatant: 1968.5 μg, ml
  Avidin μg/cm2 talc surface: 62.3 μg/cm2
[3]; Avidin 19800 μg/ml added
  Avidin binded with talc: 12166.7 µg/mL
  Avidin in supernatant: 7633.3 μg, ml
  Avidin μg/cm2 talc surface: 163.5 μg/cm2
[3]; Avidin […] added
  Avidin binded with talc: 7952.7 µg/mL
  Avidin in supernatant: 5247.3 μg, ml
  Avidin μg/cm2 talc surface: 106.9 μg/cm2
[3]; increasing concentrations of Avidin
  saturation of talc particles: not fully saturated
[4]; 1 mg talc, Cold Avidin only 100 ug/mL
  Efficiency of binding, absorbance 450 nm: 0.31 OD and 0.4373 OD and 0.2746 OD and 0.2226 OD
[4]; 1 mg talc, Cold Avidin only 200 ug/mL
  Efficiency of binding, absorbance 450 nm: 0.27 OD and 0.2701 OD and 0.2684 OD and 0.2574 OD
[4]; 1 mg talc, Cold Avidin only 400 ug/mL
  Efficiency of binding, absorbance 450 nm: 0.3 OD and 0.2408 OD and 0.3108 OD and 0.354 OD and 0.30 OD
[4]; 1 mg talc, Cold Avidin only 4 mg/mL
  Efficiency of binding, absorbance 450 nm: 0.33 OD and 0.3584 OD and 0.3743 OD and 0.2618 OD
[4]; 5 mg talc, Cold Avidin only 100 ug/mL
  Efficiency of binding, absorbance 450 nm: 1.38 OD and 1.4221 OD and 1.4705 OD and 1.2587 OD
[4]; 5 mg talc, Cold Avidin only 200 ug/mL
  Efficiency of binding, absorbance 450 nm: 1.4 OD and 1.3784 OD and 1.4737 OD and 1.3586 OD and 1.40 OD
[4]; 5 mg talc, Cold Avidin only 400 ug/mL
  Efficiency of binding, absorbance 450 nm: 1.01 OD and 0.9944 OD and 1.357 OD and 0.6924 OD
[4]; 5 mg talc, Cold Avidin only 4 mg/mL
  Efficiency of binding, absorbance 450 nm: 1.23 OD and 0.9106 OD and 1.3512 OD and 1.4221 OD
[4]; HRP-labeled avidin, saturation of binding
  avidin bound by talc: > 2 nanograms of avidin per mg of talc

Source: US10925852B2, “Talc-bound compositions and uses thereof” (THE TRUSTEES OF COLUMBIA UNIVERSITY IN THE CITY OF NEW YORK, priority 2015, dated 2021)
